# Measurements published in doi:10.1101/2021.01.04.425348.
# By UniProt entry, the sequences of proteins in these tests, tags left out. Residues count along the entry.
# UniProt Q8NBS9, residues 33-432: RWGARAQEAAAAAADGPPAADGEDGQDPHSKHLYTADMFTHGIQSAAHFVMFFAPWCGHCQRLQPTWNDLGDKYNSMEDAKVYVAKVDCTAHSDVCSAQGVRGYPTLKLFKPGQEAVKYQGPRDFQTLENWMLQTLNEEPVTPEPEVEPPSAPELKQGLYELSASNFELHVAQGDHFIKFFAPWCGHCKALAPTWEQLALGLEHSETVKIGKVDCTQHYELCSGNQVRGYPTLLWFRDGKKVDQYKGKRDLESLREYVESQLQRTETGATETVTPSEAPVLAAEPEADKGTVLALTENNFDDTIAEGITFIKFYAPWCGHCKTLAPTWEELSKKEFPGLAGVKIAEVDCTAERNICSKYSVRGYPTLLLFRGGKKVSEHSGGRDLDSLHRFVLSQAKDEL
# Results are given in words; binding and its absence hold for the method and conditions named.
# Target: ER-resident protein 46 (ERp46), wild type (human) (UniProt Q8NBS9)
# Experiment: high-speed atomic force microscopy
substance,measurement,value
"ER-resident protein 46 (ERp46), wild type (from UniProt Q8NBS9 33-432) (enzyme)",binding,no binding (tested: 1 nM)
